Changes are numbered by the printed parent chain. No constants are given. Whether binding was seen depends on the method and setting. Some results given as binding are weak or reduced against the parent protein; the word gives no strength.
Tests used:
[1] = molecular target: T1, Ferritin H (frog), wild type, protein nanocage (frog) (UniProt P07229); assay: phage display selection on ferritin H (frog) as adsorbant
T1 sequence (looked up): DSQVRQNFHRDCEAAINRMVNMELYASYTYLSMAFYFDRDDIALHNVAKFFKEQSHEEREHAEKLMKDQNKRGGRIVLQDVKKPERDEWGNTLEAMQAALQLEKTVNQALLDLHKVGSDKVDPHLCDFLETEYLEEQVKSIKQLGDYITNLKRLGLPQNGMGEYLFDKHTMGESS

[2] = molecular target: T2, Ferritin H-L134P (frog), pore gate mutant with unfolded pores (frog) (UniProt P07229); assay: phage display, elution from ferritin H with ferritin H-L134P (peptide group A)
T2 sequence (looked up): T1 sequence (looked up) with L134P

[3] = molecular target: T1, Ferritin H (frog), wild type, protein nanocage (frog); assay: phage display, elution with ferritin H (peptide group B)
[4] = molecular target: T1, Ferritin H (frog), wild type, protein nanocage (frog); assay: synthetic undecapeptide mixed with mineralized ferritin before demineralization

Binder: SHTSPSI [Peptide 2 (heptapeptide) SHTSPSI, phage-displayed]
- binding [1]: binds
- binding [2]: binds

Binder: NTYYFPK [Pep1 (heptapeptide) NTYYFPK, phage-displayed]
- binding [1]: binds
- binding [2]: binds

Binder: HHALDGS [Pep4 (heptapeptide) HHALDGS, phage-displayed]
- binding [3]: binds

Binder: HSNTYYFPKGG [Peptide 1, synthetic undecapeptide HSNTYYFPKGG]
- binding [4]: binds

Binder: GDWYLGD [Peptide 3 (heptapeptide) GDWYLGD, phage-displayed]
- binding [3]: binds

Binder: HHALGGS [Peptide 5 (heptapeptide) HHALGGS, phage-displayed]
- binding [3]: binds

Reference: patent US20090325869A1 (CHILDREN S HOSPITAL AND RESEARCH CENTER OAKLAND, published 2009)
